Test results: PubChem BioAssay AID1347075 (National Center for Advancing Translational Sciences (NCATS), 2019)
Where “and” joins values, the source holds several entries; their conditions need not be identical. Equal values may be shown once. Hit rate of the full screen: of about 400,000 compounds, about 5,500 (1.4%) were called active. Inconclusive means that the source gave no clear call. Such entries were picked first, then a sample of the others. Calls follow the shape of the dose curve; as a rule, active = well fitted cell-killing curve with a large enough effect; inconclusive = small, poorly fitted or top-dose-only effect, or effect the other way; inactive = flat fitted curve, though single readings scatter. A potency beside an inconclusive call is a rough fit, not a confirmed value.
% is scaled to controls: 0 for no effect and ±100 for the full control effect; potency is read from the fitted curve at half-maximal effect.

Assay: qHTS assay for MDR1-selective chemotherapeutics: Primary screen using the parental adenocarcinoma cell KB-3-1; also: nearly all actives have a fitted effect of over 60% in size
Conditions: KB-3-1 viability, CellTiter-Glo ATP luminescence, 72 h; activity change, negative = cytotoxic: at 46.1 µM (top of the series)
Method in brief: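 KB-3-1 cells, DMEM (no phenol red) + 10% FBS; compound by pin transfer, 72 h, 37 °C. Readout: CellTiter-Glo luminescence after 10 min. Data normalized, curve-fitted.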
In the case of `CN(C)CCNS(=O)(=O)c1ccc(N2CCN(c3ccc(F)cc3)CC2)c([N+](=O)[O-])c1`, the Potency is reported as inconclusive: 29.1 µM [cytotoxic, single point]. In the case of `Cc1ccc(CNC(=O)CCc2nnc3n(C)c(=O)c4sccc4n23)cc1`, the Potency is reported as “inactive”. For `COc1ccc(NS(=O)(=O)c2ccc(N3CC(O)=C(c4ccccc4)C3=N)cc2)cc1`, the Potency was “inactive”. For `CCOC(=O)c1ccc(Nc2nnc(C(C)(C)C)c(=O)[nH]2)cc1`, the Potency was inconclusive: 29.1 µM [cytotoxic, single point]. With `CC(=O)Nc1ccc(Nc2c(CCC(C)C)c(C)c(C#N)c3nc4ccccc4n23)cc1` the Potency was inconclusive: 25.9 µM [cytotoxic, partial curve, poor fit]. In the case of `Cc1ccc(NC(=O)/C(=C\c2ccc3c(c2)OCO3)NC(=O)c2ccco2)cc1`, the Potency is reported as “inactive”. In the case of `NC1=NC[C@H](c2ccccc2)N1CCc1cc(C(F)(F)F)cc(C(F)(F)F)c1`, the Potency is reported as inconclusive: 29.1 µM [cytotoxic, single point]. For `COc1ccc(S(=O)(=O)N2CCN(CCOc3ccccc3Cl)CC2)cc1OC`, the Potency was “inactive”. With `CC[N+]1(CC(=O)c2cccs2)CCCCC1` the Potency was inconclusive: 1.03 µM [rising, full curve, poor fit]. For `COc1ccc(CCN(C)C(=O)c2cccc(S(=O)(=O)NCc3ccccc3)c2)cc1OC`, the Potency was “inactive”. In the case of `CC[C@H](C)[C@H](NC(=O)c1ccc(Cl)cc1)C(=O)OCC(=O)c1ccc2c(c1)NC(=O)CO2`, the Potency is reported as inconclusive: 29.1 µM [cytotoxic, single point]. For `Cc1c(C(=O)NCc2cccnc2)sc2nc(-c3ccccc3)cn12`, the Potency was inconclusive: 23.1 µM [cytotoxic, partial curve, poor fit]. For `Cc1ccc(NS(=O)(=O)c2c(F)cc(F)c(Cl)c2F)cc1S(=O)(=O)N1CCOCC1`, the Potency was “inactive”. In the case of `Cc1ccc(NC(=O)Nc2cccc([N+](=O)[O-])c2)cc1F`, the Potency is reported as inconclusive: 14.6 µM [cytotoxic, partial curve, poor fit]. In the case of `CSCCC(NS(=O)(=O)c1ccc(Cl)cc1)C(=O)OCC(=O)c1c(C)[nH]c2ccccc12` (configuration not stated), the Potency is reported as inconclusive: 18.4 µM [cytotoxic, single point]. In the case of `O=c1c2cc(F)ccc2sn1-c1ccccc1`, the Potency is reported as inconclusive: 29.1 µM [cytotoxic, single point]. In the case of `COc1ccc(-c2ccc3ncnc(NCCc4cnc[nH]4)c3c2)cc1OC`, the Potency is reported as inconclusive: 25.9 µM [cytotoxic, partial curve, poor fit]. For `C[C@@H]1CC=C[C@H]2[C@H]1C(=O)N(Cc1ccccc1)[C@H]2c1ccc(F)c(/C=C/c2ccccc2)c1`, the Potency was inconclusive: 32.6 µM [cytotoxic, single point]. For `COc1ccc(C)c2sc(N(CCCN(C)C)C(=O)c3ccc(S(=O)(=O)N4CCc5ccccc5C4)cc3)nc12`, the Potency was inconclusive: 23.1 µM [cytotoxic, single point]. In the case of `Cc1ccc(Cl)c(OCC(=O)Nc2sc(C)c(C)c2C#N)c1`, the Potency is reported as inconclusive: 18.4 µM [cytotoxic, partial curve, poor fit]. With `COc1cccc(C2=Cc3ccc(F)cc3C(CC(C)=O)N2c2ccc(C#CC3(O)CCCCC3)cc2)c1` (configuration not stated) the Potency was inconclusive: 18.4 µM [cytotoxic, single point]. For `COc1cc(/C=C2\SC(=N)N(c3ccc4c(c3)OCO4)C2=O)cc(OC)c1O`, the Potency was “inactive”. For `Cc1ccc(C(=O)Nc2ccccc2N2CCCCC2)cc1[N+](=O)[O-]`, the Potency was inconclusive: 18.4 µM [cytotoxic, single point]. For `O=C(CNC(=O)c1ccco1)Nc1ccc(S(=O)(=O)N2CCCC2)cc1`, the Potency was “inactive”. For `NC(=O)N/N=C/c1ccc(N2CCOCC2)s1`, the Potency was inconclusive: 2.91 µM [cytotoxic, full curve, poor fit]. In the case of `CCCCNc1c2c3c(cccc3n(C)c1=O)C(=O)c1ccccc1-2`, the Potency is reported as inconclusive: 18.4 µM [cytotoxic, single point]. With `NNc1nc2c(F)cccc2s1` the Potency was inconclusive: 2.06 µM [rising, full curve, poor fit]. For `N#Cc1ccc(NC(=O)Nc2ccc(Cl)cc2)cc1`, the Potency was active: 20.6 µM. In the case of `Cc1ccc(-c2nnc(N(C)C(=O)c3ccncc3)s2)cn1`, the Potency is reported as inconclusive: 20.6 µM [rising, partial curve, poor fit]. With `OC1c2c(F)cccc2N=C2CCCCCN21` (configuration not stated) the Potency was “inactive”. For `CC1CN(C(=S)SCC(=O)c2ccc([N+](=O)[O-])cc2)CC(C)O1` (configuration not stated), the Potency was inconclusive: 0.461 µM [rising, full curve, poor fit]. For `CC(C)Oc1ccccc1C1CC(=O)Nc2cc3c(cc21)OCCO3` (configuration not stated), the Potency was inconclusive: 0.58 µM [cytotoxic, full curve, poor fit]. In the case of `CCOC(=O)c1ccc(-c2c(-c3cc(OC)c(OC)c(OC)c3)noc2C)cc1F`, the Potency is reported as active: 1.64 µM and inconclusive: 2.91 µM [cytotoxic, partial curve, poor fit]. For `COc1ccc(NC(C)C(=O)N/N=C/c2ccccc2OCc2ccc(Br)cc2)cc1` (configuration not stated), the Potency was inconclusive: 35.5 µM [cytotoxic, single point]. In the case of `C[N+]1(CC(=O)c2cccc([N+](=O)[O-])c2)CCOCC1`, the Potency is reported as “inactive”. For `Cc1ccc(S(=O)(=O)Nc2ccccc2N=Cc2c(F)c(F)c(F)c(F)c2F)cc1`, the Potency was inconclusive: 29.1 µM [cytotoxic, single point]. With `Nc1ncc(-c2ccccc2)c(-c2ccc(O)cc2O)n1` the Potency was inconclusive: 23.1 µM [cytotoxic, single point]. With `Cc1cc(C)c(C#N)c(SCC(=O)Nc2ccccc2C(N)=O)n1` the Potency was inconclusive: 7.31 µM [rising, partial curve, poor fit]. For `CN1CCN(C2=C(NS(=O)(=O)c3ccccc3)C(=O)c3ccccc3C2=O)CC1`, the Potency was inconclusive: 29.1 µM [cytotoxic, single point]. In the case of `FC(F)(F)C1=Nc2cccc3cccc(c23)N1`, the Potency is reported as inconclusive: 20.6 µM [cytotoxic, single point]. In the case of `CSc1ccc(S(=O)(=O)N(CC(=O)NN=C2CCN(C)CC2)c2ccc(C)cc2)cc1`, the activity change, negative = cytotoxic is reported as inconclusive: -0.502%. In the case of `O=S(=O)([N-]c1nc2ccccc2nc1-n1cc[n+](Cc2ccccc2)c1)c1ccccc1`, the Potency is reported as “inactive”. In the case of `CCCCCCCNC(=O)C1(CC2CC(c3ccc(Cl)cc3)=NO2)CCN(C(=O)c2cc(OCC)c(OCC)c(OCC)c2)CC1` (configuration not stated), the Potency is reported as “inactive”. In the case of `CCN(CC(=O)Nc1ccc(N2CCOCC2)cc1)C(=O)COc1ccccc1OC`, the Potency is reported as “inactive”. For `N=c1c2c(ncn1Cc1ccco1)Oc1c(ccc3ccccc13)C2c1ccccc1` (configuration not stated), the Potency was inconclusive: 18.4 µM [cytotoxic, single point]. With `COc1ccc(CNC(=O)c2ccc(-c3ccc(F)c(F)c3)c3ccoc23)cc1OC` the Potency was inconclusive: 20.6 µM [cytotoxic, single point]. In the case of `COc1ccccc1N(C)S(=O)(=O)c1ccc(C(=O)Nc2ccc(N3CCOCC3)cc2)cc1`, the Potency is reported as inconclusive: 29.1 µM [cytotoxic, partial curve, poor fit]. With `COc1ccc(-c2nc3n(c2C)Cc2ccccc2-3)cc1` the Potency was inconclusive: 3.26 µM [rising, partial curve, poor fit]. For `O=[N+]([O-])c1ccc2nc[nH]c2c1`, the Potency was inconclusive: 29.1 µM [rising, partial curve, poor fit]. For `COC(=O)C1=CO[C@@H](OC2OC(CO)C(O)C(O)C2O)[C@@H]2C(CO)=CC[C@H]12` (some centres not stated), the Potency was “inactive”. In the case of `CCc1ccc(CN(C(=O)Nc2cccc(Cl)c2)c2ccccn2)cc1`, the Potency is reported as “inactive”. With `Nc1nc2cc3ccccc3cc2[nH]c1=O` the Potency was active: 6.51 µM. For `CCOC(=O)Cn1c(=O)c2c(nc(Br)n2Cc2ccccc2Cl)n(C)c1=O`, the Potency was inconclusive: 23.1 µM [cytotoxic, partial curve]. For `Cc1ccc(-c2ccc(CN3C(C(C)C)C(=O)N(Cc4cn(CCC5OCCO5)nn4)CCS3(=O)=O)cc2)cc1` (configuration not stated), the Potency was active: 18.4 µM. In the case of `C=CCn1c(SCC(=O)N(CC)CC)nc(O)cc1=O`, the Potency is reported as inconclusive: 23.1 µM [rising, single point]. For `c1ccc(N2CCN(Cc3cnc(N4CCOCC4)s3)CC2)cc1`, the Potency was “inactive”. For `COc1cccc(/C=N/NC(=O)CNC(=O)C(c2ccccc2)c2ccccc2)c1O`, the Potency was inconclusive: 20.6 µM [cytotoxic, partial curve, poor fit]. With `COc1cc(CC(=O)N(C)CC(=O)Nc2cc(C)ccc2C)cc(OC)c1OC` the Potency was “inactive”. In the case of `NC(=O)c1ccc(/C=N/O)nc1`, the Potency is reported as “inactive”. For `O=C(/C=C\Nc1ccc2c(c1)OCO2)c1ccccn1`, the Potency was inconclusive: 0.0366 µM [rising, full curve]. In the case of `Cc1cc(C(=O)OCC(=O)NC2CCS(=O)(=O)C2)c(C)n1-c1ccccc1` (configuration not stated), the Potency is reported as inconclusive: 14.6 µM [cytotoxic, partial curve, poor fit]. For `CN(C)S(=O)(=O)N1CCN(CC(O)COc2ccc3cc(Br)ccc3c2)CC1` (configuration not stated), the Potency was inconclusive: 29.1 µM [cytotoxic, single point]. In the case of `Cc1cccc(S(=O)(=O)N(C)C[C@@H]2OCc3cnnn3CCCC(=O)N([C@@H](C)CO)C[C@@H]2C)c1`, the Potency is reported as “inactive”. For `COc1ccc(CCNC(=O)C2CCCN2C(=O)Nc2cccc(OC)c2)cc1` (configuration not stated), the Potency was “inactive”. In the case of `COc1cccc(C(C(=O)NC2CCCC2)N2CCN(c3cc(C)nc4ccccc34)CC2)c1OC` (configuration not stated), the Potency is reported as “inactive”. In the case of `C=CCN(CC=C)C(=S)NC(=O)c1ccc(C)c(Br)c1`, the Potency is reported as inconclusive: 18.4 µM [cytotoxic, single point]. In the case of `c1ccc(Cn2nnc3c(NCCN4CCOCC4)ncnc32)cc1`, the Potency is reported as inconclusive: 20.6 µM [cytotoxic, single point].
